Measurements reported in PubChem BioAssay AID1053208 (Peter MacCallum Cancer Centre, 2014).
Screen: 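Synthetic lethal interactions between gene loss and doxorubicin in osteosarcoma cells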 (primary screen). Cell system: mouse osteosarcoma cells, early-passage culture from an engineered mouse model of fibroblastic bone tumour. Reagent: siRNA pool against mouse genes, 40 nM. Timing: about 120 h (48 h before drug, then 72 h with drug). Treatment: doxorubicin 100 nM for 72 h, roughly 30-40% inhibitory dose. Measured: 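Luminescent ATP signal taken as viability with or without 100 nM doxorubicin for 72 h; mean of two wells set against non-targeting siRNA and turned into robust z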. Reading the numbers: viability z-score with doxorubicin: higher = more viable cells under doxorubicin; viability z-score without drug: higher = more viable cells with knock-down alone. Hit rule: 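Called active if knock-down leaves viability unchanged without drug (z within -2 to 2) but lowers it with doxorubicin (z at or under -2)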.
In all, the deposit lists about 17,000 reagents; below is an unselected part. Over the whole deposit, 788 (4.7%) got an active call. 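Calls rest on z-score classes alone; an extra cut-off of viability at most 70% of control was not applied to them.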 Further read-outs or replicates are left out here. No sequences are given here.

| gene symbol | combined z-score class | viability z-score with doxorubicin | viability z-score without drug | Outcome |
| --- | --- | --- | --- | --- |
| Sarnp | no change with or without drug | -0.9 | -0.67 | inactive |
| St18 | no change with or without drug | -0.67 | -0.51 | inactive |
| Tlr5 | no change with or without drug | -0.45 | -0.17 | inactive |
| Fam229b | no change with or without drug | -0.45 | -0.17 | inactive |
| Tgfb1 | no change with or without drug | -0.67 | -0.17 | inactive |
| Ccdc14 | high cell count without drug only | 1.35 | 2.19 | inactive |
| Adipoq | no change with or without drug | -0.9 | -0.17 | inactive |
| Nufip1 | no change with or without drug | -0.45 | 0.84 | inactive |
| Cyp4a31 | no change with or without drug | -0.22 | -0.51 | inactive |
| Tas2r104 | no change with or without drug | 0.45 | 1.18 | inactive |
| Fn3krp | no change with or without drug | 0 | -0.67 | inactive |
| 4930515G01Rik | low cell count with doxorubicin only | -2.92 | 1.85 | active |
| Sh3tc2 | no change with or without drug | -1.12 | 0.51 | inactive |
| Trmt11 | no change with or without drug | -0.22 | -1.18 | inactive |
| Zfp945 | no change with or without drug | 0.45 | 0.34 | inactive |
| Zeb2 | no change with or without drug | 0.67 | 1.52 | inactive |
| Rinl | no change with or without drug | -0.22 | -1.01 | inactive |
| Sec61b | no change with or without drug | 0 | -1.18 | inactive |
| Rgmb | no change with or without drug | 1.35 | 0.51 | inactive |
| Agap1 | no change with or without drug | -1.12 | -1.18 | inactive |

A stretch from the list above, as a working copy:
| gene symbol | combined z-score class | viability z-score with doxorubicin | viability z-score without drug | Outcome |
| --- | --- | --- | --- | --- |
| Zeb2 | no change with or without drug | 0.67 | 1.52 | inactive |
| Rinl | no change with or without drug | -0.22 | -1.01 | inactive |
